Reference: PubChem BioAssay AID2685 (National Center for Advancing Translational Sciences (NCATS), 2010)
The list shows a part of the results. These are further read-outs of the screen, such as a control signal, another cell line or another target. No call is given for them. Compounds called inactive in the main read-out are mostly missing here. The note in brackets gives the kind of curve behind each potency; many fits are weak.

Assay: qHTS Assay for Lipid Storage Modulators in Drosophila S3 Cells;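 for cell number change: cells counted by Cell Tracker Red CMTPX staining in the red channel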
Conditions: BODIPY lipid droplet fluorescence, 18-24 h; for cell number change: measured here: cell count max response, cells fed with added oleic acid
Outline: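 Drosophila S3 cells got compounds at several concentrations plus oleic acid (400 uM solution). Laser-scanning cytometry with 488 nm excitation read lipid droplets at 500-530 nm and cells at 575-640 nm. Percent activity was relative to 20 uM Triacsin C.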

[1] = measured here: lipid fluorescence (Fed channel) AC50, cells fed with added oleic acid
[2] = measured here: cell number channel AC50, cells fed with added oleic acid

SMILES	cell number change [%]	AC50 [1]	AC50 [2]
C=CCSc1nc2ccccc2c(=O)[nH]1	-17.8	0.259 µM [falling, full curve]	
O=C(Nc1ccc(F)cc1)c1cc(-c2ccncc2)nc2c(Cl)cccc12	54.9	29.1 µM [falling, single point]	0.0731 µM [rising, full curve]
CNC(=S)NNC(=O)Cc1ccc(OC)c(OC)c1	-34.8	32.6 µM [falling, single point]	0.0259 µM [falling, full curve, poor fit]
O=C(CNc1ccccc1)N/N=C/c1ccc([N+](=O)[O-])cc1	13.3	1.84 µM [rising, partial curve, poor fit]	
O=C(/C=C/c1ccccc1)N(Cc1cccc(Cl)c1)C1CCS(=O)(=O)C1 (stereo not drawn)		0.00461 µM [rising, full curve, poor fit]	
Cc1cc(C)cc(NC(=O)CSc2nnc(CNC(=O)c3ccco3)n2C)c1	16.7	0.517 µM [falling, full curve]	0.461 µM [falling, full curve]
COc1ccc(-c2cc3ncccc3cn2)cc1	-8.15	1.16 µM [falling, single point]	1.3 µM [falling, single point]
CCCS(=O)(=O)c1cscc1NC(=O)c1c(-c2c(F)cccc2Cl)noc1C	7.74		
CC(C(=O)NCc1ccccn1)N1C(=O)c2ccccc2C1=O (stereo not drawn)	-8.7	1.64 µM [falling, partial curve]	1.46 µM [falling, partial curve]
Cc1nc(NC(C)c2ccccc2)c2oc3ccccc3c2n1 (stereo not drawn)	-40.8		
Cn1nnnc1SCc1cccc(CSc2nnnn2C)n1	-2.83	2.59 µM [rising, single point]	
Cc1ccccc1CSc1nnc2ccc(-c3ccncc3)nn12	-3.63	0.0058 µM [falling, full curve, poor fit]	
CCN(C(=O)CSc1nnc(C(C)N(C)C)n1-c1ccc(F)cc1)C1CCS(=O)(=O)C1 (stereo not drawn)	12.7	0.116 µM [rising, full curve, poor fit]	
Cc1cccc(C(=O)NC(=S)Nc2cccc3nc(C)ccc23)c1	-26.5	29.1 µM [falling, single point]	
Cc1cc(C)c(S(=O)(=O)NCc2cccnc2)cc1C		6.51 µM [falling, single point]	
O=C(Oc1cccc([N+](=O)[O-])c1)C1CCN(C(=O)c2ccc(F)cc2)CC1			4.11 µM [rising, partial curve, poor fit]
CCn1cc(/C=N\NC(=O)Cc2ccc([N+](=O)[O-])cc2)c(C)n1	24.4	0.731 µM [rising, full curve, poor fit]	
O=C(NCCCCCCNC(=O)NCc1ccco1)NCc1ccco1	15	1.46 µM [falling, full curve]	
CN(C)CCCNC(=O)c1ccc(Oc2ccccc2)cc1	56.6		6.51 µM [falling, single point]
CCOc1cc(S(=O)(=O)N2CCN=C2Cc2ccccc2)ccc1F	2.89	3.26 µM [rising, full curve]	

SMILES	cell number change [%]	AC50 [1]	AC50 [2]
COc1ccc(C(C)=O)cc1COC(=O)c1cc2ccccc2cc1O		29.1 µM [falling, single point]	
O=C(NCc1ccco1)c1cc(S(=O)(=O)N2CCCC2)ccc1Cl	7.43		
N#Cc1ccc(COC(=O)c2cnc(Cl)c(Cl)c2)cc1	16.2		
CCOC(=O)c1c(C)n(C)c2ccc(OC(=O)c3ccco3)cc12	109	6.51 µM [falling, single point]	29.1 µM [rising, single point]
COC(=O)C1=C(C)N(Cc2ccccc2)C(=NCc2cc(OC)c(OC)c(OC)c2)N[C@H]1CCc1ccccc1	7.23	29.1 µM [falling, single point]	
N#CCCn1cc(/C=N/NC(=O)c2ccncc2)c(-c2ccccc2)n1	-73.8	16.4 µM [falling, partial curve]	13 µM [falling, partial curve, poor fit]
Cc1ccc(N2CC(C(=O)OCC(=O)c3ccc([N+](=O)[O-])cc3)CC2=O)cc1 (stereo not drawn)	-24.8		
Nc1cc(=O)[nH]c(SCc2nnc(-c3ccccc3)o2)n1	-8.13	0.58 µM [falling, full curve, poor fit]	
CCOC(=O)CN(c1ccccn1)S(=O)(=O)c1ccccc1	3.8	2.91 µM [rising, single point]	
Cc1cccc(NC(=O)CCC(=O)N/N=C/c2cccnc2)c1	41.6	5.17 µM [rising, single point]	29.1 µM [rising, partial curve, poor fit]
Cc1ccc(Cn2c3ccccc3c3cn[nH]c(=O)c32)cc1	-3.92	29.1 µM [falling, single point]	
COc1cc(NC(=O)CN2C(=O)C(c3ccccc3)=NC2(C)C)cc(OC)c1	8.75		0.82 µM [rising, full curve, poor fit]
O=C(Nc1ccc(NS(=O)(=O)c2ccccc2)cc1)c1ccccc1	169	6.51 µM [rising, single point]	20.6 µM [rising, partial curve]
Cc1[nH]n(-c2ccccc2)c(=O)c1N=Nc1ccc(F)cc1	-47.8	13 µM [falling, partial curve]	16.4 µM [falling, single point]
CSC1=NCCN1S(=O)(=O)c1ccc(C)cc1	35.5	29.1 µM [rising, single point]	32.6 µM [rising, single point]
O=C(NC1CCCC1)c1c[nH]c2ccc(F)cc2c1=O	4.8	0.58 µM [falling, single point]	
Cc1ccn2c(NC3CCCC3)c(-c3cccs3)nc2c1	2.16	0.00461 µM [falling, full curve, poor fit]	
COC(=O)[C@H](CCSC)NC(=O)Cn1ccc(NC(=O)OCc2ccccc2)nc1=O	-16.6	0.517 µM [rising, partial curve]	
COc1ccc(C(=O)NCCCSc2ccccc2)cc1F	59.5	4.61 µM [rising, full curve]	8.2 µM [rising, partial curve]
Cc1cc(S(=O)(=O)N2CCOCC2)ccc1NC(=O)c1ccc(F)cc1	3.28	6.51 µM [rising, single point]	

Two records picked at random from those above:
SMILES	cell number change [%]	AC50 [1]	AC50 [2]
O=C(NC1CCCC1)c1c[nH]c2ccc(F)cc2c1=O	4.8	0.58 µM [falling, single point]	
O=C(CNc1ccccc1)N/N=C/c1ccc([N+](=O)[O-])cc1	13.3	1.84 µM [rising, partial curve, poor fit]	

(more compounds)

SMILES	cell number change [%]	AC50 [1]	AC50 [2]
CCOC(=O)[C@@H]1[C@H]2COc3cc(OC)ccc3[C@@H]2N2C(=O)N(c3ccc(C(F)(F)F)cc3)C(=O)[C@@]12C	15	0.13 µM [falling, full curve, poor fit]	
c1ccc(-c2nnc(N3CCCC3)nc2-c2ccccc2)cc1	31.9		16.4 µM [rising, partial curve]
Cc1ccccc1Nc1c(-c2ccc(N3CCOCC3)cc2)nc2cnccn12	41.4		
O=C(O)CCCn1cc(NC(=O)c2c(F)cccc2F)cn1	-36.4	29.1 µM [falling, single point]	16.4 µM [falling, single point]
CC(C)OC(=O)CSc1nc(-c2ccc(F)cc2)nc2ccc(F)cc12	21	18.4 µM [rising, single point]	
CCCN(C(=O)C1CCCN(c2ncnc3c2nc2n3CCCCC2)C1)c1ccc(F)cc1 (stereo not drawn)	-20.3	1.03 µM [rising, full curve]	
CCn1c(SCC(=O)c2ccc(Cl)s2)nnc1-c1cccs1	-5.22		
CC1CN(C(=O)c2cccn(Cc3c(Cl)cccc3Cl)c2=O)CC(C)O1 (stereo not drawn)	-44.3		29.1 µM [falling, partial curve, poor fit]
Cc1[nH]ncc1-c1nc2ccccc2[nH]1	-19.7	0.398 µM [rising, full curve, poor fit]	
Cn1c(COc2ccc(F)cc2)nnc1SCC(=O)NC1CC1	29.3		0.461 µM [rising, full curve, poor fit]
Cc1ccc(NC(=O)CCN2C(=O)c3ccccc3S2(=O)=O)cc1C			6.51 µM [rising, single point]
COCc1c(C(=O)N2CCc3ccccc32)oc2ccccc12	32.1	3.66 µM [rising, single point]	
COc1ccc(N(C)C(=O)c2cc3c(s2)-c2c(C)cccc2OC3)c(OC)c1		29.1 µM [rising, single point]	
CCc1nc(SCC(=O)N2CCN(C(=O)c3ccco3)CC2)c2c3c(sc2n1)CCCC3	84	7.31 µM [rising, partial curve]	10.3 µM [rising, partial curve]
Clc1ccccc1-c1nc2nc3ccccc3nc2n1-c1ccc2c(c1)OCO2	60.6	1.46 µM [rising, partial curve]	29.1 µM [rising, single point]
CC(c1ccccc1)n1cc(C(=O)NCc2cccnc2)nn1 (stereo not drawn)		6.51 µM [rising, single point]	6.51 µM [rising, single point]
CS(=O)(=O)N(CC(=O)NC1CCCC1)Cc1ccc(F)cc1	-23.7	0.092 µM [falling, full curve, poor fit]	
Cc1ccc(C(=O)O)cc1NC(=S)NC(=O)Cc1ccccc1	-5.44	3.66 µM [falling, single point]	

Gathered by group: the entries above containing an NH in an aromatic ring.
SMILES	cell number change [%]	AC50 [1]	AC50 [2]
C=CCSc1nc2ccccc2c(=O)[nH]1	-17.8	0.259 µM [falling, full curve]	
Nc1cc(=O)[nH]c(SCc2nnc(-c3ccccc3)o2)n1	-8.13	0.58 µM [falling, full curve, poor fit]	
Cc1ccc(Cn2c3ccccc3c3cn[nH]c(=O)c32)cc1	-3.92	29.1 µM [falling, single point]	
Cc1[nH]n(-c2ccccc2)c(=O)c1N=Nc1ccc(F)cc1	-47.8	13 µM [falling, partial curve]	16.4 µM [falling, single point]
O=C(NC1CCCC1)c1c[nH]c2ccc(F)cc2c1=O	4.8	0.58 µM [falling, single point]	
Cc1[nH]ncc1-c1nc2ccccc2[nH]1	-19.7	0.398 µM [rising, full curve, poor fit]	
